Binding data for 1 substance are collected here from PMC5855799.

Amino acid sequences for entries named in this document (tags omitted).
UniProt P05787: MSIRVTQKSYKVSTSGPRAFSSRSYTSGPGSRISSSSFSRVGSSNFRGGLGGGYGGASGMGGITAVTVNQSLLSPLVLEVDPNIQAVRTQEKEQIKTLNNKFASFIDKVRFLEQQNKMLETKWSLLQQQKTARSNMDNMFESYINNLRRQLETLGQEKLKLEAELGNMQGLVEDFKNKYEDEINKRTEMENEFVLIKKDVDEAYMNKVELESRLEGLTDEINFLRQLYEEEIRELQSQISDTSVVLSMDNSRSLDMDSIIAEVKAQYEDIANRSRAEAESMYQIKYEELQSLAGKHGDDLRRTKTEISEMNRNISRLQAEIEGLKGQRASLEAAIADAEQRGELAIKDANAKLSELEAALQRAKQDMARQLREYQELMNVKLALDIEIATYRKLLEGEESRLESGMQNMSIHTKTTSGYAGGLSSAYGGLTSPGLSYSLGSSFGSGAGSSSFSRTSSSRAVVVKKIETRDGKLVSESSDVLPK
UniProt P07355: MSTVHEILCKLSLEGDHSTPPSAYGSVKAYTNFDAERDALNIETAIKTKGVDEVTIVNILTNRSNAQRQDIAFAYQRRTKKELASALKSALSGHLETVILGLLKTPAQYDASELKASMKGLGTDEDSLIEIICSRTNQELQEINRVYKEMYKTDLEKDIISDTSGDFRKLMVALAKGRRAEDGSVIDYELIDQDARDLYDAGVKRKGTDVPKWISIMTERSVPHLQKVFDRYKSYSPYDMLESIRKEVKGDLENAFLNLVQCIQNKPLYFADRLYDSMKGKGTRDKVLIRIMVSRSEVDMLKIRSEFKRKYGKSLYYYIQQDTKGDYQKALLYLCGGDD

No constants are given. Whether binding was seen depends on the method and setting. Binding seen in cells or lysates may run through a third protein. Some binding calls cover weakened binding; strength is not graded here.

For this test, the target named is Keratin-8 (human (endogenous in ACT1)) (UniProt P05787). As to the kind of experiment: co-IP; magnetic bead-based immunoprecipitation from ACT1 lysates with antibodies to KRT8, annexin-A2 or non-targeting IgG; eluates probed by Western blot with KRT8 and annexin-A2 antibodies; repeated in triplicate. A general note: A western blot detects proteins with antibodies after separation by electrophoresis.

With Annexin A2 (from UniProt P07355 1-339), the binding result is reported as “binds”.
